Reference: article doi:10.1101/2023.08.10.552820

T1: UBC13A (AtUBC35), two-hybrid fusion (Arabidopsis) (UniProt Q94A97)
T1 sequence: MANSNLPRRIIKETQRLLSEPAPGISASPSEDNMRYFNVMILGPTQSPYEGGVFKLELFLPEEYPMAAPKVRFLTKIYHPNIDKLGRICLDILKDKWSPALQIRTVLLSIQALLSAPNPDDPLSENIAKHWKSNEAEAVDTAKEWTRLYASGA

T2: UBC13B (AtUBC36), two-hybrid fusion (Arabidopsis) (UniProt Q9FZ48)
T2 sequence: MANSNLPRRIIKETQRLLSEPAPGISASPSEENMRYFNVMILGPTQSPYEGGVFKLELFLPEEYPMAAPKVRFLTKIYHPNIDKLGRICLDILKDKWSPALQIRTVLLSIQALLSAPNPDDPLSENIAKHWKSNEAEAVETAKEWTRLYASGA


Legend:
[1] = molecular target: Fni3 (Fen-interacting protein 3), two-hybrid bait (tomato (Solanum lycopersicum)) (UniProt V5KY71); assay: two-hybrid
[2] = molecular target: T1, UBC13A (AtUBC35), two-hybrid fusion (Arabidopsis); assay: two-hybrid
[3] = molecular target: T2, UBC13B (AtUBC36), two-hybrid fusion (Arabidopsis); assay: two-hybrid
[4] = molecular target: XBAT35.2-cYFP (Arabidopsis); assay: split reporter
[5] = molecular target: XBAT35.2^ΔANK-cYFP (Arabidopsis); assay: split reporter
[6] = molecular target: XBAT35.2^ΔRING-cYFP (Arabidopsis); assay: split reporter
[7] = molecular target: XBAT35.2^AA-nYFP (Arabidopsis); assay: split reporter
[8] = molecular target: XBAT35.2^ΔRING-nYFP (Arabidopsis); assay: split reporter
[9] = molecular target: XBAT35.2-nYFP (Arabidopsis); assay: split reporter
[10] = molecular target: XBAT35.2-FLAG (Arabidopsis); assay: co-IP

Molecule | binding [4] | binding [6] | binding [9] | also measured
Fti1B (XBSL34), two-hybrid prey (from UniProt A0A3Q7HJI5) (enzyme) |  |  |  | binding [1]: binds
XBAT35.2, two-hybrid fusion (Arabidopsis) (enzyme) |  |  |  | binding [2]: binds; binding [3]: binds
VPS28-2-nYFP (protein, UniProt Q9S9T7 1-210) MMEVKLWNDKREREMYENFAELFAIIKATEKLEKAYIRDLINPSEYESECQKLIVHFKTLSATLKDTVPNIERFADTYKMDCPAALYRLVTSGLPATVEHRATVAASTSNSASIVAECVQNFITSMDSLKLNMVAVDQVYPLLSDLSASLNKLSILPPDFEGKTKMKEWLSRLSKMGAADELTEQQSRQLHFDLESSYNSFMAALPKAGN | binds | binds |  | binding [5]: no binding
VPS28-2-cYFP (protein, UniProt Q9S9T7 1-210) MMEVKLWNDKREREMYENFAELFAIIKATEKLEKAYIRDLINPSEYESECQKLIVHFKTLSATLKDTVPNIERFADTYKMDCPAALYRLVTSGLPATVEHRATVAASTSNSASIVAECVQNFITSMDSLKLNMVAVDQVYPLLSDLSASLNKLSILPPDFEGKTKMKEWLSRLSKMGAADELTEQQSRQLHFDLESSYNSFMAALPKAGN |  |  | binds | binding [7]: binds; binding [8]: binds
BAK1-nYFP (receptor, UniProt Q94F62 26-615) NAEGDALSALKNSLADPNKVLQSWDATLVTPCTWFHVTCNSDNSVTRVDLGNANLSGQLVMQLGQLPNLQYLELYSNNITGTIPEQLGNLTELVSLDLYLNNLSGPIPSTLGRLKKLRFLRLNNNSLSGEIPRSLTAVLTLQVLDLSNNPLTGDIPVNGSFSLFTPISFANTKLTPLPASPPPPISPTPPSPAGSNRITGAIAGGVAAGAALLFAVPAIALAWWRRKKPQDHFFDVPAEEDPEVHLGQLKRFSLRELQVASDNFSNKNILGRGGFGKVYKGRLADGTLVAVKRLKEERTQGGELQFQTEVEMISMAVHRNLLRLRGFCMTPTERLLVYPYMANGSVASCLRERPESQPPLDWPKRQRIALGSARGLAYLHDHCDPKIIHRDVKAANILLDEEFEAVVGDFGLAKLMDYKDTHVTTAVRGTIGHIAPEYLSTGKSSEKTDVFGYGVMLLELITGQRAFDLARLANDDDVMLLDWVKGLLKEKKLEALVDVDLQGNYKDEEVEQLIQVALLCTQSSPMERPKMSEVVRMLEGDGLAERWEEWQKEEMFRQDFNYPTHHPAVSGWIIGDSTSQIENEYPSGPR | binds | binds |  | 
BAK1-HA (receptor, UniProt Q94F62 26-615) NAEGDALSALKNSLADPNKVLQSWDATLVTPCTWFHVTCNSDNSVTRVDLGNANLSGQLVMQLGQLPNLQYLELYSNNITGTIPEQLGNLTELVSLDLYLNNLSGPIPSTLGRLKKLRFLRLNNNSLSGEIPRSLTAVLTLQVLDLSNNPLTGDIPVNGSFSLFTPISFANTKLTPLPASPPPPISPTPPSPAGSNRITGAIAGGVAAGAALLFAVPAIALAWWRRKKPQDHFFDVPAEEDPEVHLGQLKRFSLRELQVASDNFSNKNILGRGGFGKVYKGRLADGTLVAVKRLKEERTQGGELQFQTEVEMISMAVHRNLLRLRGFCMTPTERLLVYPYMANGSVASCLRERPESQPPLDWPKRQRIALGSARGLAYLHDHCDPKIIHRDVKAANILLDEEFEAVVGDFGLAKLMDYKDTHVTTAVRGTIGHIAPEYLSTGKSSEKTDVFGYGVMLLELITGQRAFDLARLANDDDVMLLDWVKGLLKEKKLEALVDVDLQGNYKDEEVEQLIQVALLCTQSSPMERPKMSEVVRMLEGDGLAERWEEWQKEEMFRQDFNYPTHHPAVSGWIIGDSTSQIENEYPSGPR |  |  |  | binding [10]: binds
VPS37-1-cYFP (protein, UniProt Q9SCP9 1-217) MFNFWGSKDQQQGQSRPQEASSQSPWYSPSLVSSPSSSRPQSSGQISAQVSPGEAAGIIVFLKDKSVDELRKLLSDKDAYQQFLLSLDQVKVQNNIKDELRRETLQLARDNLEKEPQIMELRNQCRIIRTTELATAQEKLNELERQKEEILKFYSPGSLLHKLQEAMNQVDEESEALQEKFLEKEIDTAAFVQKYKKLRTTYHRRALIHLAAKTSNI |  |  | binds | binding [7]: binds
VPS37-1-nYFP (protein, UniProt Q9SCP9 1-217) MFNFWGSKDQQQGQSRPQEASSQSPWYSPSLVSSPSSSRPQSSGQISAQVSPGEAAGIIVFLKDKSVDELRKLLSDKDAYQQFLLSLDQVKVQNNIKDELRRETLQLARDNLEKEPQIMELRNQCRIIRTTELATAQEKLNELERQKEEILKFYSPGSLLHKLQEAMNQVDEESEALQEKFLEKEIDTAAFVQKYKKLRTTYHRRALIHLAAKTSNI | binds | binds |  | binding [5]: no binding
DRP1A-cYFP (protein, UniProt P42697 1-610) MENLISLVNKIQRACTALGDHGDSSALPTLWDSLPAIAVVGGQSSGKSSVLESIVGKDFLPRGSGIVTRRPLVLQLQKIDDGTREYAEFLHLPRKKFTDFAAVRKEIQDETDRETGRSKAISSVPIHLSIYSPNVVNLTLIDLPGLTKVAVDGQSDSIVKDIENMVRSYIEKPNCIILAISPANQDLATSDAIKISREVDPSGDRTFGVLTKIDLMDKGTDAVEILEGRSFKLKYPWVGVVNRSQADINKNVDMIAARKREREYFSNTTEYRHLANKMGSEHLAKMLSKHLERVIKSRIPGIQSLINKTVLELETELSRLGKPIAADAGGKLYSIMEICRLFDQIFKEHLDGVRAGGEKVYNVFDNQLPAALKRLQFDKQLAMDNIRKLVTEADGYQPHLIAPEQGYRRLIESSIVSIRGPAEASVDTVHAILKDLVHKSVNETVELKQYPALRVEVTNAAIESLDKMREGSKKATLQLVDMECSYLTVDFFRKLPQDVEKGGNPTHSIFDRYNDSYLRRIGSNVLSYVNMVCAGLRNSIPKSIVYCQVREAKRSLLDHFFAELGTMDMKRLSSLLNEDPAIMERRSAISKRLELYRAAQSEIDAVAWSK |  |  | no binding | 
DRP2B-cYFP (protein, UniProt Q9LQ55 1-920) MEAIDELSQLSDSMRQAASLLADEDPDETSSSRRPATSLNVVALGNVGAGKSAVLNSLIGHPVLPTGENGATRAPIIIDLSREESLSSKAIILQIDNKNQQVSASALRHSLQDRLSKGASGRGRDEIYLKLRTSTAPPLKLIDLPGLDQRIVDDSMIGEHAQHNDAILLVVVPASQASEISSSRALKIAKEYDPESTRTVGIISKIDQAAENPKSLAAVQALLSNQGPPKTTDIPWVALIGQSVSIASAQSGGSENSLETAWRAESESLKSILTGAPQSKLGRIALVDTLASQIRSRMKLRLPNILTGLQGKSQIVQDELARLGEQLVSSAEGTRAIALELCREFEDKFLLHLAGGEGSGWKVVASFEGNFPNRIKKLPLDRHFDLNNVKRIVLEADGYQPYLISPEKGLRSLIKTVLELAKDPARLCVDEVHRVLVDIVSASANATPGLGRYPPFKREVVAIASAALDGFKNEAKKMVVALVDMERAFVPPQHFIRLVQRRMERQRREEELKGRSSKKGQDAEQSLLNRATSPQPDGPSSTGGSLKSLRDKLMPQDKDKDKEKETPEVSGLKTAGPEGEITAGYLMKKSAKTNGWSRRWFVLNEKTGKLGYTKKQEERNFRGTVTLEECSIEEISDDEGEKSKSSKDKKSNGPDSKGPGLVFKITCRVPYKTVLKAHNALVLKAESMVDKNEWINKLQKVIQARGGQVGSASMRQSLSEGSLDKMVRKPVDPEEELRWMSQEVRGYVEAVLNSLAANVPKAVVLCQVEKSKEDMLNQLYSSISAIGNERIESLIQEDQNVKRRRDRYQKQSSLLSKLTRQLSIHDNRAAAASSWSDNSGTESSPRTNGGSSGEDWMNAFNAAASGPDSLKRYGSGGHSRRYSDPAQNGEDSSGSGGSSRRTTPNRLPPAPPQSGSSYRY |  |  | no binding | 

No constants are given. Whether binding was seen depends on the method and setting. For some of these results: Binding calls can cover weak binding; strength is not graded here. For some of these results: Where a sequence is shown, tags or fusion partners need not be part of it. For some of these results: Binding seen in cells or lysates may run through a third protein.
